Source: the supplement of paper PMC10849652
The other results are listed elsewhere or left out.

Amino acid sequences for entries named in this document (tags omitted). A change or cut given only in a name is not applied to a line headed by its entry.
UniProt P63027, whole entry, looked up: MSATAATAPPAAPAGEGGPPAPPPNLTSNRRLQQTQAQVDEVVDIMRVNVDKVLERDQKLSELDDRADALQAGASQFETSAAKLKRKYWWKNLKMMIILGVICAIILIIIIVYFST
UniProt Q13107: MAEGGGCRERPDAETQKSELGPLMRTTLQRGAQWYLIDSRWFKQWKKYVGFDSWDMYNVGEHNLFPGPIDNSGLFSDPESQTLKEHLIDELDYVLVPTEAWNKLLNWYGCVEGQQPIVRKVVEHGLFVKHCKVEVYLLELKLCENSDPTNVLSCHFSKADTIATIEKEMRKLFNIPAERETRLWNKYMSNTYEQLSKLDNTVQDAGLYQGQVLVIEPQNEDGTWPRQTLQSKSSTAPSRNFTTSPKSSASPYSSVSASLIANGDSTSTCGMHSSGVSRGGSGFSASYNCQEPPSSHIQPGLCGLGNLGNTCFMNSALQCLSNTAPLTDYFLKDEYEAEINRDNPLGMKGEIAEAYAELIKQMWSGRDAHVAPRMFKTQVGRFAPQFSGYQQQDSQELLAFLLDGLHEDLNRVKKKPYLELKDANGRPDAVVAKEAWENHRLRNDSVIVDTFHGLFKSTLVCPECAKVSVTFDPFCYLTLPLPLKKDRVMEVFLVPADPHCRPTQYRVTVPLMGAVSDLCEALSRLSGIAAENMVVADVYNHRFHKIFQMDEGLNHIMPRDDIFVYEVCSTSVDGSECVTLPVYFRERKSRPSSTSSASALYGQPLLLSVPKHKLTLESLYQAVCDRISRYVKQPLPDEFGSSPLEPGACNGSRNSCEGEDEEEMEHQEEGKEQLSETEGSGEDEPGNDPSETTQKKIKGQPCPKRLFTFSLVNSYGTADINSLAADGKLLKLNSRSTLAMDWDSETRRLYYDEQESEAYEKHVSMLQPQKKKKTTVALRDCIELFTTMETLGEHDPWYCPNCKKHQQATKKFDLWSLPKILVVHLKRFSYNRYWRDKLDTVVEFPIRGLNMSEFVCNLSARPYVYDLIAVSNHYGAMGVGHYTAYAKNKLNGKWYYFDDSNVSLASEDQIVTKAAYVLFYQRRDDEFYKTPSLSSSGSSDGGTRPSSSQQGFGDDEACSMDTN
UniProt Q9Y5T5, whole entry, looked up: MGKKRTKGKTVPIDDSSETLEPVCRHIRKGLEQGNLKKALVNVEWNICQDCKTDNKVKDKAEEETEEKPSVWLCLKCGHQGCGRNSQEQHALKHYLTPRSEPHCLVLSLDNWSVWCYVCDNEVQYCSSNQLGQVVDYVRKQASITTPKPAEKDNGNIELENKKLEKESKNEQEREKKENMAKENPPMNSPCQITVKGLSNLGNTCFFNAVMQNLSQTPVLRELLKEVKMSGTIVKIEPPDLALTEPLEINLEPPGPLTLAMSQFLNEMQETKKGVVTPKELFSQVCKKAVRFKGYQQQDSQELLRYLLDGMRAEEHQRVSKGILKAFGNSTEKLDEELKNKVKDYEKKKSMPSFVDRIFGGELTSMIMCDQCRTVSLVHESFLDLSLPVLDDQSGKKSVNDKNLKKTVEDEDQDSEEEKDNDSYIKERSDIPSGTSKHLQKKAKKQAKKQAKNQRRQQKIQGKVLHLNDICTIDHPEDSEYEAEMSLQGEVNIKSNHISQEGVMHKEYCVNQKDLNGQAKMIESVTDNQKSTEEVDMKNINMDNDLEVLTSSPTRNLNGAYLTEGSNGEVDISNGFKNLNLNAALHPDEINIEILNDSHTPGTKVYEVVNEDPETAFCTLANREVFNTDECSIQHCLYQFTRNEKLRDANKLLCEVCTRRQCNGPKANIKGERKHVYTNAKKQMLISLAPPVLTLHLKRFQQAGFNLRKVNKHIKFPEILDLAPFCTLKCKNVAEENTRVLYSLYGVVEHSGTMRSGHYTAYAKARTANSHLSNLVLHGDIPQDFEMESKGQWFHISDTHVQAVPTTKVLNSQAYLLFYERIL
UniProt Q16851: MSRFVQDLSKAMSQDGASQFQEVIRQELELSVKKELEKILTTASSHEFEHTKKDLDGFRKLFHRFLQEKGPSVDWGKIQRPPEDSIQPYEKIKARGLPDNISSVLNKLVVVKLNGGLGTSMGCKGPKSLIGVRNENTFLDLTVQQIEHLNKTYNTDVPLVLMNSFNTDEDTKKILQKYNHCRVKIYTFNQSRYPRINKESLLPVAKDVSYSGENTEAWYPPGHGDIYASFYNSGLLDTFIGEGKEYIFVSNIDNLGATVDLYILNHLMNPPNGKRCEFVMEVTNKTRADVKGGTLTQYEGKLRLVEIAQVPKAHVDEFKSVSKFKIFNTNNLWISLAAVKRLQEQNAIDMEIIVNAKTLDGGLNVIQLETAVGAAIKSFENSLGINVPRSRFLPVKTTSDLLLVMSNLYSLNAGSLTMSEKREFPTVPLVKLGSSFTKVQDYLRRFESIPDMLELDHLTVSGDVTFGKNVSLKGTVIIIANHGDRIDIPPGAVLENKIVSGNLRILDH
UniProt Q08AM6: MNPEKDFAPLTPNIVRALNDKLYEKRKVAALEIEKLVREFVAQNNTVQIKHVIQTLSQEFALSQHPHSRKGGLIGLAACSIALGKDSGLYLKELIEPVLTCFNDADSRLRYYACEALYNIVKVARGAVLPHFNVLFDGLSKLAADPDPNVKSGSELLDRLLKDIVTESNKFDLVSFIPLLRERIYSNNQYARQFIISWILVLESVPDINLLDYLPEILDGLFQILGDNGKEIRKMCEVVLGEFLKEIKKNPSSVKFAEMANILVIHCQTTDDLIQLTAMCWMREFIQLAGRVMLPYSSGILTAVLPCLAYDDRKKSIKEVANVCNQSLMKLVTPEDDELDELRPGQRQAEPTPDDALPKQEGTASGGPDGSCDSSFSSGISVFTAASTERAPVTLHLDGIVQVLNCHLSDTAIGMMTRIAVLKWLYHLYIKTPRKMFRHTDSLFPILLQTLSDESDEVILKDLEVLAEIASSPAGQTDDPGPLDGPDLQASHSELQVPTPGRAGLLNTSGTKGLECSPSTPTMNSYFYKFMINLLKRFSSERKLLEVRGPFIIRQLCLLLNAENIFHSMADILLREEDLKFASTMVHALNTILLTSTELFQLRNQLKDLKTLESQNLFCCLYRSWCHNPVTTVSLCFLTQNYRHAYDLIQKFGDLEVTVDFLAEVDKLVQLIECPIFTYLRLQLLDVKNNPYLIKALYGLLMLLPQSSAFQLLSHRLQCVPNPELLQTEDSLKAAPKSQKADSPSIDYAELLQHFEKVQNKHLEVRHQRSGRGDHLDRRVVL
UniProt Q86UV5: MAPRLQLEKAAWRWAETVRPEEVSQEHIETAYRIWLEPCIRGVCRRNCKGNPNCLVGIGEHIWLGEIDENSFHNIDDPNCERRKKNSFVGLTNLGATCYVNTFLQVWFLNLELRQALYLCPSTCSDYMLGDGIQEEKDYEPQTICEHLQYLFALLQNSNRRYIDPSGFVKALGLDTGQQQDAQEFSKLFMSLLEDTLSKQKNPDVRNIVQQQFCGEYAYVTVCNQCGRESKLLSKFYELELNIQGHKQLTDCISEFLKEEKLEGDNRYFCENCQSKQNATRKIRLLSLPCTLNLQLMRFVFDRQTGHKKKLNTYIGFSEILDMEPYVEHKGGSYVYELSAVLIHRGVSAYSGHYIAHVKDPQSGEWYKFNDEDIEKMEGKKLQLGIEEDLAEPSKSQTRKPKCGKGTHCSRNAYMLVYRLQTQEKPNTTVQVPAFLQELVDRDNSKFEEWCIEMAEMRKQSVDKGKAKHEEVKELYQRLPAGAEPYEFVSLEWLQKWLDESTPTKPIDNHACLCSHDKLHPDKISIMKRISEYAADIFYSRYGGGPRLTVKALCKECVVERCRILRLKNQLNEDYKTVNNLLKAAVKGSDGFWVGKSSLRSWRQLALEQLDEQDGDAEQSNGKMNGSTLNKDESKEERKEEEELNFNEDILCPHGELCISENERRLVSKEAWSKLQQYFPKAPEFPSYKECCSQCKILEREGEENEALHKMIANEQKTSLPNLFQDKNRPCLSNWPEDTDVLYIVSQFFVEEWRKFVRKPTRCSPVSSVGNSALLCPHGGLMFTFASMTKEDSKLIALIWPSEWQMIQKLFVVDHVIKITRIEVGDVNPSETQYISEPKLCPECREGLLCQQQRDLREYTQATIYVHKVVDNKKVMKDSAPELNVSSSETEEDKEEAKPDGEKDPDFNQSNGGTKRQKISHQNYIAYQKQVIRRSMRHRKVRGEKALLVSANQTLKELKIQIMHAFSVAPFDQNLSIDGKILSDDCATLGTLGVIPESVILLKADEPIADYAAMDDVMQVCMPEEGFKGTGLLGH
UniProt O94782: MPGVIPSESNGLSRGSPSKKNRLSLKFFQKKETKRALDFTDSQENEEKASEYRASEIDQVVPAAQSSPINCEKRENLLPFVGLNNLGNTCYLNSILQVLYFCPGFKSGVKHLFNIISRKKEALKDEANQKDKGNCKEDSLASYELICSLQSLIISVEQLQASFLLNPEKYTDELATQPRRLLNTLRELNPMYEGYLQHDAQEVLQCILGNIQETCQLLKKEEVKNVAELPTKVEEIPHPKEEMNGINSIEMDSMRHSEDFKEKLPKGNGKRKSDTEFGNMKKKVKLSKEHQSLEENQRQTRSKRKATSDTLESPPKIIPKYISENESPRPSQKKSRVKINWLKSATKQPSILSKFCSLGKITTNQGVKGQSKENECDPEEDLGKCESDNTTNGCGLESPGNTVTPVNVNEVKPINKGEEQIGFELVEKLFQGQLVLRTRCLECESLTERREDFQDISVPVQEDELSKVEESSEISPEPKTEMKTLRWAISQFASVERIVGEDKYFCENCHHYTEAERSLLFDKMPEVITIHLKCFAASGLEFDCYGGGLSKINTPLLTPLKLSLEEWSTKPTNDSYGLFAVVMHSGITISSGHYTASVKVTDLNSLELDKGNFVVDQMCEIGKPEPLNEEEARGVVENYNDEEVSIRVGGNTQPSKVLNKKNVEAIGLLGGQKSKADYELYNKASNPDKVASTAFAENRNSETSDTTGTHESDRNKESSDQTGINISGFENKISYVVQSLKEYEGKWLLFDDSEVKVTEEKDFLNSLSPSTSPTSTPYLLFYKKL
UniProt O14949: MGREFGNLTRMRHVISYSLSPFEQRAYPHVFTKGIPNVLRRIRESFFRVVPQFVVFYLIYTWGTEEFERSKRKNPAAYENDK

Tests used:
Assay in all cases: log2 fold change, soluble protein after heating vs DMSO (PISA); higher = thermal stabilisation; K562 lysate, 10 uM; active = over 0.2 and 3.5 SD of the protein, either way, in both replicates (recomputed)
vemurafenib = compound: CCCS(=O)(=O)Nc1ccc(F)c(C(=O)c2c[nH]c3ncc(-c4ccc(Cl)cc4)cc23)c1F [vemurafenib]
Procedure, shortened: (§1)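 K562 pellets were dounce-homogenised in PBS pH 7.4 containing 1 mM MgCl2, and the crude extract, at 1 mg/mL protein, was exposed to 10 μM compound for 30 min. Aliquots were heated for 3 min across 48°C-58°C, pooled, brought to 0.5% NP-40 at 4°C and spun at 21,000xg for 90 min, with the supernatant taken as soluble protein. TMTpro 16plex LC-MS/MS with equalised channel sums quantified that protein. Values are log-two fold changes in thermal stability relative to solvent controls, taken from duplicates.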

[1] = compound: CCCS(=O)(=O)Nc1ccc(F)c(C(=O)c2c[nH]c3ncc(Cl)cc23)c1F
Procedure, shortened: as §1

barasertib = compound: CCN(CCCOc1ccc2c(Nc3cc(CC(=O)Nc4cccc(F)c4)[nH]n3)ncnc2c1)CCOP(=O)(O)O [barasertib]
Procedure, shortened: as §1

[2] = compound: CC[C@@H]1C(=O)N(C)c2cnc(Nc3ccc(C(=O)NC4CCN(C)CC4)cc3OC)nc2N1C1CCCC1
Procedure, shortened: as §1

volasertib = compound: CC[C@@H]1C(=O)N(C)c2cnc(Nc3ccc(C(=O)N[C@H]4CC[C@H](N5CCN(CC6CC6)CC5)CC4)cc3OC)nc2N1C(C)C [volasertib]
Procedure, shortened: as §1

[3] = compound: CCn1c(C(=O)N(C2CC2)C2CC2)cc2c3c(ncn3C)c(Nc3cc(C)n(C)n3)nc21
Procedure, shortened: as §1

[4] = compound: CCn1cc(-c2ccnc3[nH]c(-c4cccc(CN(C)C)c4)cc23)c(-c2ccc(NC(=O)N(C)C)cc2)n1
Procedure, shortened: as §1

[5] = compound: CN1CCC(CNc2ccc3ncc(-c4cccc(OC(F)(F)F)c4)n3n2)CC1
Procedure, shortened: as §1

saracatinib = compound: CN1CCN(CCOc2cc(OC3CCOCC3)c3c(Nc4c(Cl)ccc5c4OCO5)ncnc3c2)CC1 [saracatinib]
Procedure, shortened: as §1

sotrastaurin = compound: CN1CCN(c2nc(C3=C(c4c[nH]c5ccccc45)C(=O)NC3=O)c3ccccc3n2)CC1 [sotrastaurin]
Procedure, shortened: as §1

alvocidib = compound: CN1CC[C@H](c2c(O)cc(O)c3c(=O)cc(-c4ccccc4Cl)oc23)[C@H](O)C1 [alvocidib]
Procedure, shortened: as §1

Tubastatin A = compound: CN1CCc2c(c3ccccc3n2Cc2ccc(C(=O)NO)cc2)C1 [Tubastatin A]
Procedure, shortened: as §1

[6] = compound: CNC(=O)C1=CC=CC=C1NC2=NC(=NC=C2Cl)NC3=C(C=C(C=C3)N4CCOCC4)OC
Procedure, shortened: as §1

defactinib = compound: CNC(=O)c1ccc(Nc2ncc(C(F)(F)F)c(NCc3nccnc3N(C)S(C)(=O)=O)n2)cc1 [defactinib]
Procedure, shortened: as §1

[7] = compound: CNc1nc(-c2ccc3c(N)n[nH]c3c2)cc(N2C[C@@H](C(=O)NC3CCCCC3)CC[C@H]2C)n1
Procedure, shortened: as §1

encorafenib = compound: COC(=O)N[C@@H](C)CNc1nccc(-c2cn(C(C)C)nc2-c2cc(Cl)cc(NS(C)(=O)=O)c2F)n1 [encorafenib]
Procedure, shortened: as §1

[8] = compound: COC(=O)[C@H](CCSC)NC(=O)C1=C(C=C(C=C1)NC[C@H](CS)N)C2=CC=CC=C2
Procedure, shortened: as §1

alisertib = compound: COc1cc(Nc2ncc3c(n2)-c2ccc(Cl)cc2C(c2c(F)cccc2OC)=NC3)ccc1C(=O)O [alisertib]
Procedure, shortened: as §1

[9] = compound: COc1cc2nc(-c3cc(F)ccc3O)nc(N[C@@H]3CNC[C@H]3C(C)(C)O)c2cc1OC
Procedure, shortened: as §1

gefitinib = compound: COc1cc2ncnc(Nc3ccc(F)c(Cl)c3)c2cc1OCCCN1CCOCC1 [gefitinib]
Procedure, shortened: as §1

Target	log2 fold change (vemurafenib)	log2 fold change [1]	log2 fold change (barasertib)	log2 fold change [2]	log2 fold change (volasertib)	log2 fold change [3]	log2 fold change [4]	log2 fold change [5]	log2 fold change (saracatinib)	log2 fold change (sotrastaurin)	log2 fold change (alvocidib)	log2 fold change (Tubastatin A)	log2 fold change [6]	log2 fold change (defactinib)	log2 fold change [7]	log2 fold change (encorafenib)	log2 fold change [8]	log2 fold change (alisertib)	log2 fold change [9]	log2 fold change (gefitinib)
VAMP2 (UniProt P63027)	inactive: 0.002	inactive: -0.027	inactive: 0.012	active: -0.286	inactive: 0.009	inactive: 0.02	inactive: 0.057	inactive: 0.091	inactive: 0.033	inactive: -0.028	inactive: 0.019	inactive: 0.027	inactive: 0.035	inactive: 0.112	inactive: -0.01	inactive: 0.05	inactive: -0.057	inactive: 0.014	inactive: 0.001	inactive: 0.018
USP4 (UniProt Q13107)	inactive: 0.026	inactive: 0.048	inactive: 0.015	inactive: -0.018	inactive: -0.042	inactive: 0.051	inactive: -0.045	inactive: -0.052	inactive: -0.003	inactive: 0.068	inactive: 0.031	inactive: -0.091	inactive: 0.059	inactive: 0.013	inactive: -0.011	inactive: -0.046	inactive: 0.076	inactive: 0.031	inactive: 0.016	inactive: -0.023
USP16 (UniProt Q9Y5T5)	inactive: 0.038	inactive: 0.005	inactive: 0.016	inactive: -0.009	inactive: -0.011	inactive: 0.01	inactive: 0.039	inactive: -0.045	inactive: 0.054	inactive: 0.013	inactive: 0.004	inactive: -0.118	inactive: -0.011	inactive: 0.035	inactive: 0.008	inactive: 0.059	inactive: 0.081	inactive: -0.011	inactive: -0.003	inactive: -0.013
UGP2 (UniProt Q16851)	inactive: -0.014	inactive: -0.008	inactive: -0.018	inactive: 0.012	inactive: 0.016	inactive: -0.018	inactive: -0.017	inactive: 0.016	inactive: 0.012	inactive: -0.007	inactive: 0.027	inactive: 0.034	inactive: 0.009	inactive: -0.004	inactive: 0.043	inactive: -0.013	inactive: -0.009	inactive: 0.014	inactive: 0.009	inactive: 0.002
VAC14 (UniProt Q08AM6)	inactive: -0.002	inactive: 0.008	inactive: 0.021	inactive: -0.021	inactive: -0.02	inactive: 0.013	inactive: -0.032	inactive: 0.007	inactive: 0.007	inactive: 0	inactive: 0	inactive: -0.036	inactive: 0.022	inactive: 0.007	inactive: 0.005	inactive: 0.04	inactive: -0.051	inactive: 0.008	inactive: 0.006	inactive: 0.003
USP48 (UniProt Q86UV5)	inactive: 0.043	inactive: 0.074	inactive: -0.024	inactive: 0.047	inactive: -0.102	inactive: -0.057	active: -0.821	inactive: 0.146	inactive: -0.021	inactive: -0.12	inactive: -0.193	inactive: -0.069	inactive: 0.123	inactive: 0.024	inactive: 0.054	inactive: -0.016	inactive: 0.018	inactive: -0.015	inactive: 0.09	inactive: -0.069
USP1 (UniProt O94782)	inactive: 0.002	inactive: -0.005	inactive: 0.159	inactive: -0.034	inactive: -0.034	inactive: -0.029	inactive: -0.025	inactive: 0.031	inactive: 0.005	inactive: -0.006	inactive: 0.024	inactive: -0.04	inactive: 0.042	inactive: 0.007	inactive: -0.002	inactive: -0.017	inactive: 0.013	inactive: -0.021	inactive: -0.038	inactive: -0.002
UQCRQ (UniProt O14949)	inactive: -0.053	inactive: 0.039	inactive: -0.061	inactive: -0.004	inactive: 0.013	inactive: 0.047	inactive: 0.219	inactive: -0.09	inactive: -0.036	inactive: 0.007	inactive: 0	inactive: 0.009	inactive: -0.013	inactive: 0.014	inactive: -0.026	inactive: 0.014	inactive: 0.004	inactive: 0.022	inactive: 0.002	inactive: 0.01
